Data as given in PubChem BioAssay AID1671195 (Yale University, 2021)
In all, the deposit lists about 22,000 reagents; this is a part drawn at random. Of all reagents, about 1,510 (6.9%) got an active call. 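Active includes knockdowns raising or lowering LDL uptake; positive z-scores mean more uptake, negative mean less.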 A number with no mark means an inactive call.

Test: 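Regulators of LDL receptor activity judged by labelled LDL uptake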 (primary screen)
Cells: human Huh7 hepatoma cells
Reagents: siRNA pool against human genes, 18 nM
Timing: about 2 to 2.5 days of knockdown, then 8 h LDL uptake
Conditions: DiI-labelled LDL at 30 µg/ml for 8 h, in lipoprotein-deficient serum medium
Read-out: 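Per-cell DiI-LDL intensity by automated imaging; well means scaled to the plate median and given as a robust z-score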
Direction: robust z-score: higher = more LDL uptake after knockdown
Rule for the call: 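a gene counts as active if at least two replicate z-scores exceed ±2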

{"gene symbol": "UBXN6 (UBX domain protein 6)", "robust z-score, replicate 1": "3.41 (active)", "robust z-score, replicate 2": 2.47, "robust z-score, replicate 3": 2.84}
{"gene symbol": "HYCC2 (hyccin PI4KA lipid kinase complex subunit 2)", "robust z-score, replicate 1": -0.00823, "robust z-score, replicate 2": 0.0959, "robust z-score, replicate 3": 0.0356}
{"gene symbol": "SLC61A1", "robust z-score, replicate 1": -0.529, "robust z-score, replicate 2": -0.179, "robust z-score, replicate 3": -0.395}
{"gene symbol": "SRSF3 (serine and arginine rich splicing factor 3)", "robust z-score, replicate 1": -1.02, "robust z-score, replicate 2": -0.991, "robust z-score, replicate 3": -0.341}
{"gene symbol": "PIGH (phosphatidylinositol glycan anchor biosynthesis class H)", "robust z-score, replicate 1": 0.306, "robust z-score, replicate 2": 0.81, "robust z-score, replicate 3": -0.674}
{"gene symbol": "POLR2D (RNA polymerase II subunit D)", "robust z-score, replicate 1": -0.332, "robust z-score, replicate 2": -0.274, "robust z-score, replicate 3": -0.17}
{"gene symbol": "ABCA17P (ATP binding cassette subfamily A member 17, pseudogene)", "robust z-score, replicate 1": -0.601, "robust z-score, replicate 2": -0.135, "robust z-score, replicate 3": -0.788}
{"gene symbol": "ING2 (inhibitor of growth family member 2)", "robust z-score, replicate 1": 1.11, "robust z-score, replicate 2": 0.915, "robust z-score, replicate 3": 1.21}
{"gene symbol": "MT1DP (metallothionein 1D, pseudogene)", "robust z-score, replicate 1": -0.762, "robust z-score, replicate 2": -0.609, "robust z-score, replicate 3": -0.739}
{"gene symbol": "SLC35A4", "robust z-score, replicate 1": 0.253, "robust z-score, replicate 2": -0.49, "robust z-score, replicate 3": -0.674}
{"gene symbol": "SRGAP1 (SLIT-ROBO Rho GTPase activating protein 1)", "robust z-score, replicate 1": "1.92 (active)", "robust z-score, replicate 2": 4.37, "robust z-score, replicate 3": 4.31}
{"gene symbol": "CLEC3A (C-type lectin domain family 3 member A)", "robust z-score, replicate 1": -0.313, "robust z-score, replicate 2": -1.08, "robust z-score, replicate 3": -1.17}
{"gene symbol": "DNAJA4 (DnaJ heat shock protein family (Hsp40) member A4)", "robust z-score, replicate 1": -0.539, "robust z-score, replicate 2": -0.0308, "robust z-score, replicate 3": -0.215}
{"gene symbol": "GPC4 (glypican 4)", "robust z-score, replicate 1": "1.98 (active)", "robust z-score, replicate 2": 3.47, "robust z-score, replicate 3": 3.11}
{"gene symbol": "ZNF524 (zinc finger protein 524)", "robust z-score, replicate 1": -1.07, "robust z-score, replicate 2": -0.804, "robust z-score, replicate 3": -0.85}
{"gene symbol": "CD19 (CD19 molecule)", "robust z-score, replicate 1": 0.284, "robust z-score, replicate 2": -0.816, "robust z-score, replicate 3": 0.404}
{"gene symbol": "CLIC4P3 (CLIC4 pseudogene 3)", "robust z-score, replicate 1": 0.425, "robust z-score, replicate 2": -0.0589, "robust z-score, replicate 3": 0.511}
{"gene symbol": "PGRMC2 (progesterone receptor membrane component 2)", "robust z-score, replicate 1": 0.459, "robust z-score, replicate 2": 0.48, "robust z-score, replicate 3": 0.442}
{"gene symbol": "PATE1 (prostate and testis expressed 1)", "robust z-score, replicate 1": -1.01, "robust z-score, replicate 2": -0.619, "robust z-score, replicate 3": -0.947}
{"gene symbol": "OR2AE1 (olfactory receptor family 2 subfamily AE member 1)", "robust z-score, replicate 1": -0.854, "robust z-score, replicate 2": -0.344, "robust z-score, replicate 3": -0.366}
{"gene symbol": "SETP14 (SET pseudogene 14)", "robust z-score, replicate 1": 0.267, "robust z-score, replicate 2": 0.221, "robust z-score, replicate 3": -0.475}
{"gene symbol": "ERICH3 (glutamate rich 3)", "robust z-score, replicate 1": 0.608, "robust z-score, replicate 2": 0.37, "robust z-score, replicate 3": 0.922}
{"gene symbol": "CTAGE10P (CTAGE family member 10, pseudogene)", "robust z-score, replicate 1": 0.29, "robust z-score, replicate 2": 0.119, "robust z-score, replicate 3": 0.0528}
{"gene symbol": "TRPC3", "robust z-score, replicate 1": -0.397, "robust z-score, replicate 2": -0.819, "robust z-score, replicate 3": -0.953}
{"gene symbol": "BCL7A (BAF chromatin remodeling complex subunit BCL7A)", "robust z-score, replicate 1": -0.713, "robust z-score, replicate 2": -1.72, "robust z-score, replicate 3": -0.134}
{"gene symbol": "LOC285101 (retired record)", "robust z-score, replicate 1": 1.05, "robust z-score, replicate 2": 0.973, "robust z-score, replicate 3": 0.618}
{"gene symbol": "DNAI1 (dynein axonemal intermediate chain 1)", "robust z-score, replicate 1": 1.5, "robust z-score, replicate 2": 0.879, "robust z-score, replicate 3": 0.456}
{"gene symbol": "MFAP5 (microfibril associated protein 5)", "robust z-score, replicate 1": -0.55, "robust z-score, replicate 2": 2.26, "robust z-score, replicate 3": 0.593}
{"gene symbol": "PRPS1 (phosphoribosyl pyrophosphate synthetase 1)", "robust z-score, replicate 1": -0.351, "robust z-score, replicate 2": -0.384, "robust z-score, replicate 3": -0.564}
{"gene symbol": "HGD (homogentisate 1,2-dioxygenase)", "robust z-score, replicate 1": -0.38, "robust z-score, replicate 2": -0.0294, "robust z-score, replicate 3": -0.149}

Entries listed so far whose gene name starts with C or c (4):
{"gene symbol": "CLEC3A (C-type lectin domain family 3 member A)", "robust z-score, replicate 1": -0.313, "robust z-score, replicate 2": -1.08, "robust z-score, replicate 3": -1.17}
{"gene symbol": "CD19 (CD19 molecule)", "robust z-score, replicate 1": 0.284, "robust z-score, replicate 2": -0.816, "robust z-score, replicate 3": 0.404}
{"gene symbol": "CLIC4P3 (CLIC4 pseudogene 3)", "robust z-score, replicate 1": 0.425, "robust z-score, replicate 2": -0.0589, "robust z-score, replicate 3": 0.511}
{"gene symbol": "CTAGE10P (CTAGE family member 10, pseudogene)", "robust z-score, replicate 1": 0.29, "robust z-score, replicate 2": 0.119, "robust z-score, replicate 3": 0.0528}
